Assay results as given in publication PMC5732788.
Where a chain is given by its changes, count along the chain named. No constants are given. Whether binding was seen depends on the method and setting. Binding seen in cells or lysates may run through a third protein. Some binding calls cover weakened binding; strength is not graded here. For part of these data: Tags and fused reporters may be left off the sequences shown. One block for each molecule: values may come before it.

Chains of the proteins cited; added tags and fusions are not shown.
UniProt P67809: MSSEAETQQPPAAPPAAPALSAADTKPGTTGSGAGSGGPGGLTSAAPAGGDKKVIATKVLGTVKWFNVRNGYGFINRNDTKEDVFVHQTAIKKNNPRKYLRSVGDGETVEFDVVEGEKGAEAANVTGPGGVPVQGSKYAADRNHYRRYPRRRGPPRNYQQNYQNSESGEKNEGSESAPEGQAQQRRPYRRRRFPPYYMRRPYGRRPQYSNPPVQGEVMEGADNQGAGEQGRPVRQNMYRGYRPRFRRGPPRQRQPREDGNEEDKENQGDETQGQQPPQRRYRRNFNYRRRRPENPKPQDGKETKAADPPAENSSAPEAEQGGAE

Legend:
[1] = target: T1, WAVE3 (human (endogenous in MDA-MB-231)) (UniProt Q9UPY6); assay: co-IP; MDA-MB-231 cell lysates immunoprecipitated with anti-WAVE3, anti-YB1 or control IgG; immunoblot for the other protein
T1 sequence: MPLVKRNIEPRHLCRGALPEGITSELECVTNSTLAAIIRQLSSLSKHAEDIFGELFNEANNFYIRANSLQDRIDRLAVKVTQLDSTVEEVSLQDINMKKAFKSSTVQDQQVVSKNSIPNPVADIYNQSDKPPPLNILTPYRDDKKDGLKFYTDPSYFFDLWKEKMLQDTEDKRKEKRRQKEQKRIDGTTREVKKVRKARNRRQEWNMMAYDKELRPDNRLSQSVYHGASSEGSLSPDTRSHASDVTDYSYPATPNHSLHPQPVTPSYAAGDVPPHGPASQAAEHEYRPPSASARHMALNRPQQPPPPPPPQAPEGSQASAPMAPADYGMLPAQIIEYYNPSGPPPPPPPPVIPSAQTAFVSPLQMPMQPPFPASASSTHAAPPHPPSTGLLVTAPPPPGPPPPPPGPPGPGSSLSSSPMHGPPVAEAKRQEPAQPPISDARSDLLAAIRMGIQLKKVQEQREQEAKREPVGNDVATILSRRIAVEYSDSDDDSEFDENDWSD

[2] = target: T2, GFP-tagged full-length WAVE3 (human) (UniProt Q9UPY6); assay: co-IP; lysates of WAVE3-deficient (W3-CRISPR-1) MDA-MB-231 cells transfected with GFP-fused WAVE3 constructs; precipitated with anti-GFP (GFP-nano-antibodies, 2 h at 4°C); immunoblot with anti-YB1
T2 sequence: T1 sequence with M1L

[3] = target: Y-box binding protein-1 (human (endogenous in MDA-MB-231)) (UniProt P67809); assay: co-IP; MDA-MB-231 cell lysates immunoprecipitated with anti-WAVE3, anti-YB1 or control IgG; immunoblot for the other protein

- binding [1]: binds
- binding [2]: binds
Molecule: Y-box binding protein-1 (from UniProt P67809 1-324)

- binding [3]: binds
B1: WAVE3 (protein, UniProt Q9UPY6 1-502)
chain: T1 sequence
